Source: the supplement of paper PMC10849652
This is one part of the list.

By UniProt entry, the sequences of proteins in these tests, tags left out. Where a name states a change or a piece, a line headed by the entry shows the natural chain unless it says otherwise.
UniProt Q9Y2Y1: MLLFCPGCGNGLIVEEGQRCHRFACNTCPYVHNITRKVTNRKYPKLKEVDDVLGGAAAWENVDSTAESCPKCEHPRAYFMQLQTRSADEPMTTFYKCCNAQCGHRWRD
UniProt Q13136: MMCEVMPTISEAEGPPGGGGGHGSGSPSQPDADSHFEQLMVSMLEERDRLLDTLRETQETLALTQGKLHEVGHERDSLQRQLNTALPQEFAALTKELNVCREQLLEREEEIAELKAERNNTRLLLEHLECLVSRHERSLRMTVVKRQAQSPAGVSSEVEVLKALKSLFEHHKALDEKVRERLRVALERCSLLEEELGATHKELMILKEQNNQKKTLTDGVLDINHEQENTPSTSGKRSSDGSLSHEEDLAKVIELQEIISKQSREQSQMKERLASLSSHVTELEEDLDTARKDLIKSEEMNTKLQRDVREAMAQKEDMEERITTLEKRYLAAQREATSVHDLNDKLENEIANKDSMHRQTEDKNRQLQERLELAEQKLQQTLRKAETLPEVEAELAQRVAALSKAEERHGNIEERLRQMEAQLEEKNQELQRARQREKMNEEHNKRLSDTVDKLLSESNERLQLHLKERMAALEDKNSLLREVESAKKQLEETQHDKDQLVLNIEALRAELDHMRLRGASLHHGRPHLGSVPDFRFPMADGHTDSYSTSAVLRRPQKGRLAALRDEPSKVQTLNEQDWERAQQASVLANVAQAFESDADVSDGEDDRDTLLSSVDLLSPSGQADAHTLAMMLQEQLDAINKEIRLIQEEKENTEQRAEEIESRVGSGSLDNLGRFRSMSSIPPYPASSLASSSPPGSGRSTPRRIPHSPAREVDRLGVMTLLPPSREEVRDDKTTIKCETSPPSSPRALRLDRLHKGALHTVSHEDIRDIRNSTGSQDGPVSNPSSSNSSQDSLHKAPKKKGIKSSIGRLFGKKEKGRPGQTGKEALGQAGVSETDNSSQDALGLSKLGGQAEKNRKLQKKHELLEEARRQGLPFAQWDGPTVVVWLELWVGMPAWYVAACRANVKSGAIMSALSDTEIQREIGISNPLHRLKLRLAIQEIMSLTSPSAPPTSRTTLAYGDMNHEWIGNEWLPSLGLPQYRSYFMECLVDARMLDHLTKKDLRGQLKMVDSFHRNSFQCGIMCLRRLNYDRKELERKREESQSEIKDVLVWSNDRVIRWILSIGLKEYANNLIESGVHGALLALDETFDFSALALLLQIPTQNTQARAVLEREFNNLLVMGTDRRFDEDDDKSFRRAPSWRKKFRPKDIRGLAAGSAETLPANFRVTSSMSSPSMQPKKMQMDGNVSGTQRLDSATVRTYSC
UniProt P0DPB5: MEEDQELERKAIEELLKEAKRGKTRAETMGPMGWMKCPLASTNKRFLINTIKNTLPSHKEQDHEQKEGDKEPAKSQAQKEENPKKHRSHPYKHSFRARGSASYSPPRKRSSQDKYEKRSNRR
UniProt Q8WVV4: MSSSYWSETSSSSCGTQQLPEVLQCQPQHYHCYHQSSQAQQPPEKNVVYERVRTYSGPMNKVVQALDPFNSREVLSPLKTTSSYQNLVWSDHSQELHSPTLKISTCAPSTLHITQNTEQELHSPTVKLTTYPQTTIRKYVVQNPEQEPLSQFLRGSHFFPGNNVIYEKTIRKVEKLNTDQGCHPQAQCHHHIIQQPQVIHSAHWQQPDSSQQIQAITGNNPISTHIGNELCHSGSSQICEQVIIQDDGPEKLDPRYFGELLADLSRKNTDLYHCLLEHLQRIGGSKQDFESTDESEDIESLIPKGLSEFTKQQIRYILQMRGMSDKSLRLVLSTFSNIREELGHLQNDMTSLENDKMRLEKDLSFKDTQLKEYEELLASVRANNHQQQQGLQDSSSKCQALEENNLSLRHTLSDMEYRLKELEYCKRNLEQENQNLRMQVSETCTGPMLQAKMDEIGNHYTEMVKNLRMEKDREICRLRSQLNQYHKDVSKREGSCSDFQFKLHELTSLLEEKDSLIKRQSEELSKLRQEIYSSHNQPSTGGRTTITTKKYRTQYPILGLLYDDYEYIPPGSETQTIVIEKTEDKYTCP
UniProt P56282: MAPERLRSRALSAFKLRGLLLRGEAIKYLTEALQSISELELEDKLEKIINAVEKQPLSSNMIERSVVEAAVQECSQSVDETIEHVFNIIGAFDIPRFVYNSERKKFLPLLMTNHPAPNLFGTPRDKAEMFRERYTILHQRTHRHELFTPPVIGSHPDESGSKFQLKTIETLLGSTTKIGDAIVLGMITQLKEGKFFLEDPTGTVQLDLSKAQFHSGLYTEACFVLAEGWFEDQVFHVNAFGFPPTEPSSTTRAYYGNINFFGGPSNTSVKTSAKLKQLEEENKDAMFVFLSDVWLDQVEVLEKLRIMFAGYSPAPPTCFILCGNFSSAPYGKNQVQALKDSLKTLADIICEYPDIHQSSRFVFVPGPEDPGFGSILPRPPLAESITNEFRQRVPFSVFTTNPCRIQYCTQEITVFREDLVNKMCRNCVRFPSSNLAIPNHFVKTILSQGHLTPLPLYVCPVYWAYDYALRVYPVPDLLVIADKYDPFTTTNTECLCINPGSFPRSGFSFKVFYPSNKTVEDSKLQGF
UniProt P11086: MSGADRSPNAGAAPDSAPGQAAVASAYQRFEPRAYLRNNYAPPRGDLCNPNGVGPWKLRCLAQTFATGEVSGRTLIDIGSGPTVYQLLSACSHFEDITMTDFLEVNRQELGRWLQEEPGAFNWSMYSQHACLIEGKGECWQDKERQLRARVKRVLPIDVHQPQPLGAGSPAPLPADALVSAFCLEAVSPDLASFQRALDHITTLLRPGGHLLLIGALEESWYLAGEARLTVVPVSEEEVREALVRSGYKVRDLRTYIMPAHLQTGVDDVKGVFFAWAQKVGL
UniProt P54278: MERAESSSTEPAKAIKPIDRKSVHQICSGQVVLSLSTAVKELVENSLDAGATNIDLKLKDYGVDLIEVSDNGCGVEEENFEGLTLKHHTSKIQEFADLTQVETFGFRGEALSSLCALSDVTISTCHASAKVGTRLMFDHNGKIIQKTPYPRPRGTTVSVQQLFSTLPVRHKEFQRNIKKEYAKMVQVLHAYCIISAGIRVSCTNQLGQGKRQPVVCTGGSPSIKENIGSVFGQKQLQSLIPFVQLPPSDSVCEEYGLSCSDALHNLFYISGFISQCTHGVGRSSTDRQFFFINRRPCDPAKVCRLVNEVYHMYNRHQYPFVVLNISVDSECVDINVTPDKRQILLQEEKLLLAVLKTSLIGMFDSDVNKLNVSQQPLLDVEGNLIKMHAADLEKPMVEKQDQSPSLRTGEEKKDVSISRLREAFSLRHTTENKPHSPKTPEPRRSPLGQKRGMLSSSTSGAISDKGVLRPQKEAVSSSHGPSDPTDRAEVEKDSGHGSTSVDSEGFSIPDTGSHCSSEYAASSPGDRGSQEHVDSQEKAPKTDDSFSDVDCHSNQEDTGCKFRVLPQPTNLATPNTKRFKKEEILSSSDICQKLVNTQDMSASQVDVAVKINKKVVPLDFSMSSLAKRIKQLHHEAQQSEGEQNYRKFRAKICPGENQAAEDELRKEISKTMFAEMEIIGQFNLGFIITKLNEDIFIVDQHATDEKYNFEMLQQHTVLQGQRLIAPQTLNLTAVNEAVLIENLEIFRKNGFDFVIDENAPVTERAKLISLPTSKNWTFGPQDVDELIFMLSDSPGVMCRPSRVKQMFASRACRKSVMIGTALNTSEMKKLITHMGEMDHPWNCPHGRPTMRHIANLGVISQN
UniProt Q9Y6A1: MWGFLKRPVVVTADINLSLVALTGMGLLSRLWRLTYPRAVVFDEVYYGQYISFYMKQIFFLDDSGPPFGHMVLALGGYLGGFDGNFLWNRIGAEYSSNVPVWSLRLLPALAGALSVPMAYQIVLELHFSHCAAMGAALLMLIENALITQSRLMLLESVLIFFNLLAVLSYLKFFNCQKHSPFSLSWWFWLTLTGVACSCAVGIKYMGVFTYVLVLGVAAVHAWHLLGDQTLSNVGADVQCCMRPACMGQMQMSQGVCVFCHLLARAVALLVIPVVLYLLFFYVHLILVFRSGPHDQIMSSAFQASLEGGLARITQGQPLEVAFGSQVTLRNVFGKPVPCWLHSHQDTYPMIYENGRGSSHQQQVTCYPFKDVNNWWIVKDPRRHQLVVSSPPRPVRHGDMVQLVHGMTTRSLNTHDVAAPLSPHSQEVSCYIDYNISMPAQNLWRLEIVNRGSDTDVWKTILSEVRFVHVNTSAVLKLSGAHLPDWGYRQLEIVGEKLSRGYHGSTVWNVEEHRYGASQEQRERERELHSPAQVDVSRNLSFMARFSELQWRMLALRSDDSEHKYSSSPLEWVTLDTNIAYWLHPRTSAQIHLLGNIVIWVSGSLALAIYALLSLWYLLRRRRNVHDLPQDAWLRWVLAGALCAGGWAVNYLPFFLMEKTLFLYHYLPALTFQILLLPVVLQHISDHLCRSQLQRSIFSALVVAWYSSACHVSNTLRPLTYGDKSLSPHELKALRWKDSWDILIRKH
UniProt O60664: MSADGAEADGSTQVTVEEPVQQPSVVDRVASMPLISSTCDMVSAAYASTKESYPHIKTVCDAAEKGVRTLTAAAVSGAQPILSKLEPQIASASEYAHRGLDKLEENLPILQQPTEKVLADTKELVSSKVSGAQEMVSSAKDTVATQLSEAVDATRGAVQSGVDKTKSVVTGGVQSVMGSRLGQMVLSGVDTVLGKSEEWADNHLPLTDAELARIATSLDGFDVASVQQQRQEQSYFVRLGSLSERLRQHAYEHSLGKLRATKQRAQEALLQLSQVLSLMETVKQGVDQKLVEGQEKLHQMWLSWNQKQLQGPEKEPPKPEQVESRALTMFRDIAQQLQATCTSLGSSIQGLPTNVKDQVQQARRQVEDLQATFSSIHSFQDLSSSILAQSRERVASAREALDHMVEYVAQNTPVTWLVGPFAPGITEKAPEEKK
UniProt Q8IYS1: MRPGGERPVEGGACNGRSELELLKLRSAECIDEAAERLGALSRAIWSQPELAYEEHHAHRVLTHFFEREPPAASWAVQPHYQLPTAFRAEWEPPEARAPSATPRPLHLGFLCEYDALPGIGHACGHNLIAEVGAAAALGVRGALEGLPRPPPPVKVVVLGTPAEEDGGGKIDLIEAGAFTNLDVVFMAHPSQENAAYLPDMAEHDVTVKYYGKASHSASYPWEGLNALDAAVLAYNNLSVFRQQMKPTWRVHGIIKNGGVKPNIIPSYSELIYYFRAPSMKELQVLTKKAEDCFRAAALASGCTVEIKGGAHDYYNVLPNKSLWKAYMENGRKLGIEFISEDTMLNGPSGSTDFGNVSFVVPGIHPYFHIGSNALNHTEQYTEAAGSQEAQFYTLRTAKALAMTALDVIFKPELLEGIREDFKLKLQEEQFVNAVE
UniProt O00411: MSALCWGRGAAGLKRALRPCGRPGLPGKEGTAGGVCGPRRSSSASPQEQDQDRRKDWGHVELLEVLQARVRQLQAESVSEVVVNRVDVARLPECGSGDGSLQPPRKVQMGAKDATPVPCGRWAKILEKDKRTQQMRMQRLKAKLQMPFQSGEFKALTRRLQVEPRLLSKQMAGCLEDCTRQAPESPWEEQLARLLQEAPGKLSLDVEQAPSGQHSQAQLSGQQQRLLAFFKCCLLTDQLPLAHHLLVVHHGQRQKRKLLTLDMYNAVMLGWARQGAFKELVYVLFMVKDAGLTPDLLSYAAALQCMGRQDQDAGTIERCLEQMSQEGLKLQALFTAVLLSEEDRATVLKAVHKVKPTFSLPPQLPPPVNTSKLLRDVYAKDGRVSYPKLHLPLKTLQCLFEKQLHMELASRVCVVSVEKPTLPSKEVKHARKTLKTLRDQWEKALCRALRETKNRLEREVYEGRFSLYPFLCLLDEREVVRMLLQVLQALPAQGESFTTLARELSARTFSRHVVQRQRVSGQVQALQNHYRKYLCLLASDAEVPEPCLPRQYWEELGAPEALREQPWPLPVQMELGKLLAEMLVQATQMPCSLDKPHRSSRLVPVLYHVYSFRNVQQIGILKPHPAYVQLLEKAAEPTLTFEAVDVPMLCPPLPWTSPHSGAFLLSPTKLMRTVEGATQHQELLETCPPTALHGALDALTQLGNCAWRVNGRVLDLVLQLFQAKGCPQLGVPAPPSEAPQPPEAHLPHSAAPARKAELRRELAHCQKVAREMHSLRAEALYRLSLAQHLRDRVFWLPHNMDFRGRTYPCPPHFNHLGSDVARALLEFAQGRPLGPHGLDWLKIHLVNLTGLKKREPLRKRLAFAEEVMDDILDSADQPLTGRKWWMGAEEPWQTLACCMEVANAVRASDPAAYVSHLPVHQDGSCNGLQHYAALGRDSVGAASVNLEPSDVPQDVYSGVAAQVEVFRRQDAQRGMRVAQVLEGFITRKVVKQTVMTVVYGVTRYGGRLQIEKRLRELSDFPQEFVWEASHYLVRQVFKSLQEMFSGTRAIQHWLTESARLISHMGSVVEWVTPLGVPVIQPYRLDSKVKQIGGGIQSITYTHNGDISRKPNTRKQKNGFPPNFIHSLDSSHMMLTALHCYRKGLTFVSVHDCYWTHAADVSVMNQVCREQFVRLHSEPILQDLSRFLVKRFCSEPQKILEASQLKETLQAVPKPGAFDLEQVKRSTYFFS

How the values were obtained:
Test in all cases: log2 fold change, soluble protein after heating vs DMSO (PISA); higher = thermal stabilisation; K562 cells, 10 uM, 30 min; active = over 0.2 and 3.5 SD of the protein, either way, in both replicates (recomputed)
bafetinib = compound: Cc1ccc(NC(=O)c2ccc(CN3CC[C@H](N(C)C)C3)c(C(F)(F)F)c2)cc1Nc1nccc(-c2cncnc2)n1 [bafetinib]
In short: (§1)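 K562 cells at 2×10^6 cells/mL were treated for 30 min with 10 μM compound, and aliquots were heated for 3 min over 48°C-58°C before pooling. Extraction used PBS with 0.5% NP-40 at 4°C, and soluble protein was the supernatant after 21,000xg for 90 min, measured by TMTpro 16plex LC-MS/MS with channel sums equalised. Thermal stability values, relative to control samples and from duplicates, are log2 fold changes.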

[1] = compound: Cc1cccc(CC(=O)N2CCc3c2ccc(-c2cn(C)c4ncnc(N)c24)c3F)n1
In short: as §1

nilotinib = compound: Cc1cn(-c2cc(NC(=O)c3ccc(C)c(Nc4nccc(-c5cccnc5)n4)c3)cc(C(F)(F)F)c2)cn1 [nilotinib]
In short: as §1

[2] = compound: Cc1nc(Nc2n[nH]c3c2CN(C(=O)N[C@H](CN(C)C)c2ccccc2)C3(C)C)c2sccc2n1
In short: as §1

dasatinib = compound: Cc1nc(Nc2ncc(C(=O)Nc3c(C)cccc3Cl)s2)cc(N2CCN(CCO)CC2)n1 [dasatinib]
In short: as §1

[3] = compound: Cc1ncc(-c2ccnc(Nc3ccc(S(C)(=O)=O)cc3)n2)n1C(C)C
In short: as §1

[4] = compound: Cn1cc(-c2ccc3c(c2)CCN3C(=O)Cc2cccc(C(F)(F)F)c2)c2c(N)ncnc21
In short: as §1

[5] = compound: Cn1cc(-c2ccc3nnc(C(F)(F)c4ccc5ncccc5c4)n3n2)cn1
In short: as §1

tipifarnib = compound: Cn1cncc1[C@@](N)(c1ccc(Cl)cc1)c1ccc2c(c1)c(-c1cccc(Cl)c1)cc(=O)n2C [tipifarnib]
In short: as §1

mubritinib = compound: FC(F)(F)c1ccc(/C=C/c2nc(COc3ccc(CCCCn4ccnn4)cc3)co2)cc1 [mubritinib]
In short: as §1

Measured: log2 fold change

POLR3K (UniProt Q9Y2Y1)
inactive: bafetinib -0.006 | [1] -0.039 | nilotinib 0.035 | [2] -0.003 | dasatinib 0.098 | [3] 0.01 | [4] -0.02 | [5] -0.021 | tipifarnib 0.033 | mubritinib -0.088

PPIP5K2 (UniProt H0Y9S9)
inactive: bafetinib -0.003 | nilotinib 0.158 | [2] 0.005 | dasatinib 0.051 | [3] 0.011 | [4] 0.129 | [5] -0.004 | tipifarnib 0.007 | mubritinib 0.076

POLR1D (UniProt P0DPB6)
inactive: bafetinib -0.233 | nilotinib -0.04 | [2] -0.157 | dasatinib -0.125 | [3] -0.023 | [4] -0.221 | [5] 0.008 | tipifarnib 0 | mubritinib -0.038

PLS3 (UniProt P13797)
inactive: bafetinib -0.025 | [1] -0.002 | nilotinib -0.003 | [2] 0.013 | dasatinib 0.026 | [3] -0.001 | [4] 0.018 | [5] 0.053 | tipifarnib -0.021 | mubritinib 0.019

PLEKHO2 (UniProt Q8TD55)
inactive: bafetinib -0.082 | [1] 0.008 | nilotinib 0.004 | [2] -0.026 | [3] -0.141 | [4] -0.189 | [5] -0.001 | tipifarnib 0.199 | mubritinib 0.017

PPFIA1 (UniProt Q13136)
inactive: bafetinib -0.011 | [1] 0.024 | nilotinib -0.223 | [2] 0 | dasatinib -0.156 | [3] -0.073 | [4] -0.056 | [5] -0.053 | tipifarnib -0.078 | mubritinib 0

PLGRKT (UniProt Q9HBL7)
inactive: bafetinib -0.184 | [1] 0.078 | nilotinib -0.005 | [2] -0.001 | dasatinib 0.141 | [3] 0.006 | [4] 0.155 | mubritinib -0.046

POLR1D (UniProt P0DPB5)
inactive: bafetinib -0.136 | [1] -0.048 | [4] -0.074 | [5] -0.061 | tipifarnib 0.371

PLPPR3 isoform 3 (UniProt Q6T4P5)
inactive: [1] -0.484 | [4] 0.044 | [5] 0.034

POLR1B isoform 3 (UniProt Q9H9Y6)
inactive: [1] 0 | nilotinib -0.256 | [2] -0.025 | dasatinib -0.029 | [3] -0.295 | [4] -0.13 | [5] -0.24 | mubritinib -0.093

POLR3GL (UniProt Q9BT43)
inactive: bafetinib -0.064 | mubritinib 0.133

PLOD2 isoform 2 (UniProt O00469)
inactive: dasatinib 0.088 | tipifarnib -0.243 | mubritinib 0.02

POF1B isoform 1 (UniProt Q8WVV4)
inactive: bafetinib 0.58 | nilotinib -0.379 | [2] 0.015 | dasatinib -0.561 | [3] -0.188 | mubritinib -0.163

POC1A (UniProt Q8NBT0)
inactive: bafetinib 0.121 | dasatinib 0.055 | [4] -0.117 | mubritinib 0.124

PLEKHJ1 (UniProt Q9NW61)
inactive: dasatinib -0.14 | [4] 0.037 | [5] -0.028 | tipifarnib -0.136

PPHLN1 isoform 3 (UniProt Q8NEY8)
inactive: [4] -0.117

PLXND1 (UniProt Q9Y4D7)
inactive: bafetinib 0.139 | dasatinib -0.08 | [5] 0.155 | mubritinib 0.104

POLE2 (UniProt P56282)
inactive: [1] -0.031 | [5] -0.013

PMS2CL (UniProt Q68D20)
inactive: nilotinib -0.189 | [2] -0.154 | [3] 0.115 | [5] -0.128 | mubritinib -0.054

PODXL (UniProt O00592)
inactive: [1] 0.308

Fetched one by one from above, 2 records:
POLR1D (UniProt P0DPB6)
inactive: bafetinib -0.233 | nilotinib -0.04 | [2] -0.157 | dasatinib -0.125 | [3] -0.023 | [4] -0.221 | [5] 0.008 | tipifarnib 0 | mubritinib -0.038

POLR1D (UniProt P0DPB5)
inactive: bafetinib -0.136 | [1] -0.048 | [4] -0.074 | [5] -0.061 | tipifarnib 0.371

(cont.)

PLSCR3 (UniProt Q9NRY6)
inactive: [1] -0.02 | nilotinib 0.097 | [2] -0.101 | [3] -0.079 | [4] 0.067

PPM1B isoform 2 (UniProt O75688)
inactive: bafetinib -0.011 | mubritinib 0.184

PORCN (UniProt Q9H237)
inactive: [4] -0.099 | [5] 0.347

PNMT (UniProt P11086)
inactive: dasatinib 0.029 | [4] 0.152 | tipifarnib -0.167

POGZ (UniProt Q7Z3K3)
inactive: [1] 0.174 | dasatinib -0.318 | [4] 0.072 | [5] 0.061 | tipifarnib -0.124

POLR2L (UniProt P62875)
inactive: [1] 0.075 | nilotinib -0.023 | [2] 0.014 | dasatinib -0.08 | [3] 0.126 | [4] -0.133 | [5] -0.04 | tipifarnib -0.112 | mubritinib -0.065

POLG, A0A3B3IS91
inactive: dasatinib 0.044 | mubritinib -0.106

PPFIA3 (UniProt O75145)
inactive: [4] 0.045

POLB (UniProt P06746)
inactive: [1] -0.081 | nilotinib -0.103 | [2] -0.134 | dasatinib -0.04 | [3] 0.009 | [4] 0.143 | [5] -0.133 | tipifarnib 0.043

POM121C (UniProt A8CG34)
inactive: bafetinib 0.015 | nilotinib 0.191 | [2] 0.092 | [3] -0.162 | [5] -0.066 | mubritinib -0.129

PPIG (UniProt Q13427)
inactive: bafetinib 0.193 | dasatinib -0.008 | [5] -0.199 | tipifarnib -0.088 | mubritinib -0.134

PMS2 (UniProt P54278)
inactive: dasatinib 0.044 | [4] 0.167 | [5] -0.111

POMT1 (UniProt Q9Y6A1)
inactive: dasatinib 0.013 | mubritinib 0.025

POT1 (UniProt Q9NUX5)
inactive: bafetinib 0.006 | nilotinib -0.088 | [2] -0.02 | [3] 0.025 | [5] 0.134 | mubritinib -0.123

PLTP (UniProt P55058)
inactive: [1] -0.253 | nilotinib -0.053 | [2] 0.094 | dasatinib 0.02 | [3] -0.048 | [4] -0.254 | tipifarnib 0.159 | mubritinib -0.088

PLIN3 isoform 2 (UniProt O60664)
inactive: bafetinib -0.401 | tipifarnib 0.067 | mubritinib -0.036

PM20D2 (UniProt Q8IYS1)
inactive: dasatinib -0.082 | [5] -0.033

POLRMT (UniProt O00411)
inactive: dasatinib 0.063

POLR1E isoform 1 (UniProt Q9GZS1)
inactive: dasatinib -0.05 | [5] -0.126 | tipifarnib 0.207 | mubritinib -0.178

PNKP (UniProt Q96T60)
inactive: [1] -0.517 | dasatinib -0.219 | [4] -0.083 | [5] 0.105 | tipifarnib 0.066

POMT2 (UniProt Q9UKY4)
inactive: bafetinib 0.125 | dasatinib -0.045 | [4] -0.079 | [5] 0.006 | tipifarnib 0.147
